Taken from: PubChem BioAssay AID1224826 (NIAID, 2016)

Purpose: 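Knock-downs that raise or lower Tnf reporter signal after endotoxin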 (primary screen)
System: RAW264.7 G9 macrophages from mouse bearing reporters for p65 (GFP) and the Tnf promoter (mCherry)
Reagent: siRNA pool against mouse genes, 100 nM
Timing: 16 h of LPS stimulation, after 2 days of siRNA transfection
Conditions: bacterial lipopolysaccharide (Salmonella minnesota R595), 10 ng/ml
Measured: 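Nuclear mCherry signal of the Tnf promoter reporter measured by imaging after background removal, scaled to each plate median and turned into robust z-scores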
Scale: Tnf reporter robust z-score: higher = stronger Tnf promoter reporter signal after LPS
Hit rule: 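a well counts as active at a score of -1.3 or below (Tlr4 knock-down control median) or above 3 (raised signal); controls and wells holding fewer than 50 cells are excluded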
Calls: active = Tnf reporter clearly lowered or raised; inactive = no clear change in Tnf reporter
In all, the deposit lists about 17,000 reagents; this is a part drawn at random. Of all reagents, about 1,110 (6.6%) got an active call. 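Active means lowered or raised reporter signal; replicate intensities are raw and not normalised per plate.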 The numbers tell different reagents against one gene apart. Not all columns of the deposit are shown. No sequences are given here.

gene | pool no. | Tnf reporter robust z-score | fewer than 50 cells in well | Call
Crtc3 | 1 | -0.08 | enough cells in well | inactive
Trarg1 | 1 | -0.14 | enough cells in well | inactive
Adamtsl5 | 1 | -0.47 | enough cells in well | inactive
B3galt6 | 1 | 0.84 | enough cells in well | inactive
Pkia | 1 | – | fewer than 50 cells per well; well left out of calls | inactive
Il27 | 1 | -1.07 | enough cells in well | inactive
Neurod6 | 1 | 0.06 | enough cells in well | inactive
Tmem26 | 1 | 2.31 | enough cells in well | inactive
Prop1 | 1 | -0.93 | enough cells in well | inactive
Hmgn3 | 1 | -0.2 | enough cells in well | inactive
Copg2 | 1 | 0.38 | enough cells in well | inactive
Iqsec1 | 1 | -1.36 | enough cells in well | active
Gsdma | 1 | 0.53 | enough cells in well | inactive
Hnrnpll | 1 | -0.41 | enough cells in well | inactive
Mrps26 | 1 | -0.32 | enough cells in well | inactive
Gramd1b | 1 | – | fewer than 50 cells per well; well left out of calls | inactive
Hamp2 | 1 | – | fewer than 50 cells per well; well left out of calls | inactive
Adat1 | 1 | -0.2 | enough cells in well | inactive
Fam89b | 1 | 2.12 | enough cells in well | inactive
Ephx3 | 1 | -0.23 | enough cells in well | inactive
H2ac1 | 1 | -0.33 | enough cells in well | inactive
Or3a1 | 1 | -0.11 | enough cells in well | inactive
Gltpd2 | 1 | 0.76 | enough cells in well | inactive
Pcdhb22 | 1 | -0.54 | enough cells in well | inactive
Prim1 | 1 | 0.96 | enough cells in well | inactive
Gjb5 | 1 | 0.5 | enough cells in well | inactive
Glra3 | 1 | 0.11 | enough cells in well | inactive
Or2a20 | 1 | -0.15 | enough cells in well | inactive
Zfp65 | 1 | -0.73 | enough cells in well | inactive
Clca3b | 1 | 0.11 | enough cells in well | inactive
Vmn1r6 | 1 | 5.48 | enough cells in well | active
Zfp512 | 1 | -0.8 | enough cells in well | inactive
Speer4b | 1 | 2.68 | enough cells in well | inactive
Adgrl4 | 1 | -0.27 | enough cells in well | inactive
Cyb561d2 | 1 | -1.34 | enough cells in well | active
Rfpl4 | 1 | 2.01 | enough cells in well | inactive
Brms1 | 1 | 2.46 | enough cells in well | inactive
Dgcr2 | 1 | 0.71 | enough cells in well | inactive
Ccdc97 | 1 | – | fewer than 50 cells per well; well left out of calls | inactive
Panx3 | 1 | -1.07 | enough cells in well | inactive
Tmprss4 | 1 | – | fewer than 50 cells per well; well left out of calls | inactive
Cd96 | 1 | -0.62 | enough cells in well | inactive
Pcdhb18 | 1 | 0.06 | enough cells in well | inactive
Bmal2 | 1 | -0.34 | enough cells in well | inactive
Ik | 1 | -0.19 | enough cells in well | inactive
Nxf2 | 1 | -1.26 | enough cells in well | inactive
Zfp3 | 1 | 0.27 | enough cells in well | inactive
Snx6 | 1 | -0.47 | enough cells in well | inactive
Rars1 | 1 | 0.69 | enough cells in well | inactive
Nat1 | 1 | 0.84 | enough cells in well | inactive
Nt5m | 1 | 2.06 | enough cells in well | inactive
Or51e1 | 1 | -0.85 | enough cells in well | inactive
Arhgap18 | 1 | -0.92 | enough cells in well | inactive
Ift88 | 1 | -0.23 | enough cells in well | inactive
Naif1 | 1 | 0.6 | enough cells in well | inactive
Tvp23b | 1 | 0.38 | enough cells in well | inactive
Stx1b | 1 | -0.15 | enough cells in well | inactive
Stx1b | 2 | -0.34 | enough cells in well | inactive
Rpl13a | 1 | -1.25 | enough cells in well | inactive
Sfxn3 | 1 | 1.39 | enough cells in well | inactive
Or8g28 | 1 | 1.65 | enough cells in well | inactive
Klk1 | 1 | -0.61 | enough cells in well | inactive
2810021J22Rik | 1 | 1.27 | enough cells in well | inactive
Amfr | 1 | 0.88 | enough cells in well | inactive
Mob3a | 1 | 1.35 | enough cells in well | inactive
Me2 | 1 | 0.87 | enough cells in well | inactive
Coch | 1 | -0.9 | enough cells in well | inactive
Prodh | 1 | 0.1 | enough cells in well | inactive
Adcy2 | 1 | 0.01 | enough cells in well | inactive
S100a11 | 1 | 0.11 | enough cells in well | inactive
Rpl38 | 1 | -0.6 | enough cells in well | inactive
Slf1 | 1 | 0.28 | enough cells in well | inactive
Aldh1l2 | 1 | -1.24 | enough cells in well | inactive
Cntn3 | 1 | 0.19 | enough cells in well | inactive
Krt31 | 1 | 0.08 | enough cells in well | inactive

Quoted from above, 12 entries:
gene | pool no. | Tnf reporter robust z-score | fewer than 50 cells in well | Call
Or8g28 | 1 | 1.65 | enough cells in well | inactive
Klk1 | 1 | -0.61 | enough cells in well | inactive
2810021J22Rik | 1 | 1.27 | enough cells in well | inactive
Amfr | 1 | 0.88 | enough cells in well | inactive
Mob3a | 1 | 1.35 | enough cells in well | inactive
Me2 | 1 | 0.87 | enough cells in well | inactive
Coch | 1 | -0.9 | enough cells in well | inactive
Prodh | 1 | 0.1 | enough cells in well | inactive
Adcy2 | 1 | 0.01 | enough cells in well | inactive
S100a11 | 1 | 0.11 | enough cells in well | inactive
Rpl38 | 1 | -0.6 | enough cells in well | inactive
Slf1 | 1 | 0.28 | enough cells in well | inactive
